Source: PubChem BioAssay (NCATS)
Some of the results follow. The main result of the screen is listed elsewhere. These columns were measured beside it and carry no call. Most of these compounds were active or inconclusive in the main read-out, so they are no random draw. Potencies come from curve fits of mixed quality, noted in brackets.

Experiment: qHTS for identification of novel therapeutic agents for treatment of microphthalmiaassociated transcription factor (MiT) renal cell carcinoma (RCC) (AID 1963991)
Conditions: CellTiter-Glo, 48 h; for z-score: stronger effect = lower value
Outline: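 Curves over 11 concentrations were fitted to CellTiter-Glo luminescence, scaled between empty wells (0%) and DMSO (100%) viability. Cells were UOK109, UOK124 and UOK145 TFE3-fusion RCC lines at 500/well, exposed 48 hours at 37 C.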

[1] = TFE3-RCC UOK109 viability, measured here: UOK109 Z-AUC
[2] = TFE3-RCC viability, measured here: UOK124 Z-AUC
[3] = TFE3-RCC viability, measured here: UOK124 cell viability
[4] = TFE3-RCC viability, measured here: UOK145 Z-AUC
[5] = TFE3-RCC viability, measured here: UOK145 cell viability

Structure (SMILES) | z-score [1] | z-score [2] | AC50 [3] | z-score [4] | AC50 [5]
CC[C@H](NC(=O)[C@H](C)NC)C(=O)N1C[C@@H](O)C[C@H]1Cc1c(-c2[nH]c3cc(F)ccc3c2C[C@H]2C[C@H](O)CN2C(=O)[C@H](CC)NC(=O)[C@H](C)NC)[nH]c2cc(F)ccc12 | -1.45 | -0.73 | 1.87 µM [falling, full curve] | -0.992 | 2.09 µM [falling, full curve]
Cn1c(=O)c(Oc2ccc(F)cc2F)cc2cnc(NC3CCOCC3)nc21 | 0.275 | -0.0598 | 10.5 µM [falling, partial curve, poor fit] | 0.319 | 23.5 µM [falling, partial curve, poor fit]
O=C(C=CC#Cc1cccc(NS(=O)(=O)c2ccccc2)c1)NO | -0.395 | -2.68 | 6.62 µM [falling, full curve] | -0.452 | 13.2 µM [falling, partial curve]
CCCNC(=O)[C@H]1O[C@H]1C(=O)N[C@H](C(=O)N1CCC[C@@H]1C(=O)OC)C(C)CC (stereo not given in full) | -3.27 | 0.691 | 11.8 µM [falling, partial curve] | 0.872 | 14.8 µM [falling, partial curve]
CCC[C@H](NC(=O)C(C#N)=Cc1cccc(Br)n1)c1ccccc1 | -0.452 | -0.358 | 2.64 µM [falling, full curve] | -0.239 | 8.33 µM [falling, full curve]
CCC(=C(c1ccc(O)cc1)c1ccc(OCCNC)cc1)c1ccccc1 | -0.499 | -0.575 | 23.5 µM [falling, partial curve] | 0.187 | 23.5 µM [falling, partial curve]
